Reference: the supplement of paper PMC10849652
The other results are listed elsewhere or left out.

Chains of the proteins cited; added tags and fusions are not shown. Lines headed by an entry give the natural chain unless they say otherwise; changes in a name come on top.
UniProt P55060: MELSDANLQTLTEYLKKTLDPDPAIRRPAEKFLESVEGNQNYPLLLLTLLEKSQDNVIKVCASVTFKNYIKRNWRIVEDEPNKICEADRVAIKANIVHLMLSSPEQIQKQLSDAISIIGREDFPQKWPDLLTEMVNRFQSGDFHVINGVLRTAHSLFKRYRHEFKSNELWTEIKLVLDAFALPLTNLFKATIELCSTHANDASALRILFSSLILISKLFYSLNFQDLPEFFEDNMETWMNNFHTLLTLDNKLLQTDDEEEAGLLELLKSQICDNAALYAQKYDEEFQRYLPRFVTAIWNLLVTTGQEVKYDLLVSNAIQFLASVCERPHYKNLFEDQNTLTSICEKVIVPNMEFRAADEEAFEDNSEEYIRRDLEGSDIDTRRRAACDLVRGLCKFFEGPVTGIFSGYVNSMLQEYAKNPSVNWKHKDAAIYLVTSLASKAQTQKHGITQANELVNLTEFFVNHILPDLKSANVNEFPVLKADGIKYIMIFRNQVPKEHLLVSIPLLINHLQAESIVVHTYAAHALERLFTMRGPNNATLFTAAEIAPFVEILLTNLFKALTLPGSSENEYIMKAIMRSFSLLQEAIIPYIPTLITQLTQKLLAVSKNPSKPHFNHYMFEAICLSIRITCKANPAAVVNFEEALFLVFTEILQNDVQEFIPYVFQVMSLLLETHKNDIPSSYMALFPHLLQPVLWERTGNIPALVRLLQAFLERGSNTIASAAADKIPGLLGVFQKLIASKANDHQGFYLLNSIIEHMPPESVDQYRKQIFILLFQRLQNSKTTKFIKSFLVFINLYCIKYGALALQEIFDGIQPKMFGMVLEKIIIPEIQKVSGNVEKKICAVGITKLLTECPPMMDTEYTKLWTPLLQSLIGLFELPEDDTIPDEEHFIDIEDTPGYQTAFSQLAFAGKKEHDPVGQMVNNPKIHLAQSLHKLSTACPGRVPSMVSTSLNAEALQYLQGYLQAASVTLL
UniProt Q9NQ92: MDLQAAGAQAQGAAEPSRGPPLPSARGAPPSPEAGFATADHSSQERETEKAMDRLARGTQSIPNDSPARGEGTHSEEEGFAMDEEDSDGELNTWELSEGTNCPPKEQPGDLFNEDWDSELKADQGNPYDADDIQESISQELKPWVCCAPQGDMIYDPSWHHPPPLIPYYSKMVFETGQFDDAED
UniProt Q92905, whole entry, looked up: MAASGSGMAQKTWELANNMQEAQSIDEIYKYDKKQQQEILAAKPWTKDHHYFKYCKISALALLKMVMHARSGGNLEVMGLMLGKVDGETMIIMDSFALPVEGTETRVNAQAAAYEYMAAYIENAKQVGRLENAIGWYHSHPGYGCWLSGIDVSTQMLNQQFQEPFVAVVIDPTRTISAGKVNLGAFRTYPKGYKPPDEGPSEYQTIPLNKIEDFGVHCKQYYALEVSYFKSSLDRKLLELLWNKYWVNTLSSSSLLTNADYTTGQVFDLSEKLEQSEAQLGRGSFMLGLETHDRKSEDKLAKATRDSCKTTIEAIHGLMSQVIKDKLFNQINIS
UniProt P35606: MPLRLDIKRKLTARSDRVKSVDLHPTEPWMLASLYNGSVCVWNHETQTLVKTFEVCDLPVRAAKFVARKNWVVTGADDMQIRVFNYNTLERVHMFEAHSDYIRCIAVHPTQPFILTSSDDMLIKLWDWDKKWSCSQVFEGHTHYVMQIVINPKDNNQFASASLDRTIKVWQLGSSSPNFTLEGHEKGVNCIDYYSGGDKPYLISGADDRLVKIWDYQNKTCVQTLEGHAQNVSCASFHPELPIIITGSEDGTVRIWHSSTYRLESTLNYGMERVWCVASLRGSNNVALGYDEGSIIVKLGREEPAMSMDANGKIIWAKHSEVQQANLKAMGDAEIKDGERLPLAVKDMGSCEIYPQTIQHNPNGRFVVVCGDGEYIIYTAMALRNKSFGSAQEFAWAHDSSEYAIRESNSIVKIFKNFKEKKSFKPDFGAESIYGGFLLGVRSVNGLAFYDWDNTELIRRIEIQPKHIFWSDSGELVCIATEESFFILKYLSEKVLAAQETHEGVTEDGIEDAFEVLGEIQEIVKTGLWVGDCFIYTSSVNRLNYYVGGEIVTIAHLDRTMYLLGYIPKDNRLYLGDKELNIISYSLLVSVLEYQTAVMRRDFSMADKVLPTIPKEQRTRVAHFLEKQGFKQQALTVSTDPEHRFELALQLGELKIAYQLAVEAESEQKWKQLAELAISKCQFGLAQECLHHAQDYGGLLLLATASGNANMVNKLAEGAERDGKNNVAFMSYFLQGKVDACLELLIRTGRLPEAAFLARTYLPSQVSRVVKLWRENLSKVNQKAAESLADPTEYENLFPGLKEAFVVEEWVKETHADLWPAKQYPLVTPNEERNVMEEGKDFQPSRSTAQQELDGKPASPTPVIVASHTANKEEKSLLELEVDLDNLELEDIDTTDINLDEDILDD
UniProt Q8N8Q8: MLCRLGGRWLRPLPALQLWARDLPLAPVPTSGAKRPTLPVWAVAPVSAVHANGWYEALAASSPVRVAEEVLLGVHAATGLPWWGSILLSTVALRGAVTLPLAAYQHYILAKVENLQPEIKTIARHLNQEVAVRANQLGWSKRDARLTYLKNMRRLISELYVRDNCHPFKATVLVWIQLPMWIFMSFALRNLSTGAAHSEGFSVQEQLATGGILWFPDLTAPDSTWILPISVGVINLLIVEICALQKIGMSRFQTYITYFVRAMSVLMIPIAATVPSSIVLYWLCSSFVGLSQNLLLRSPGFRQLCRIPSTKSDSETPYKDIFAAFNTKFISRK
UniProt P13073, whole entry, looked up: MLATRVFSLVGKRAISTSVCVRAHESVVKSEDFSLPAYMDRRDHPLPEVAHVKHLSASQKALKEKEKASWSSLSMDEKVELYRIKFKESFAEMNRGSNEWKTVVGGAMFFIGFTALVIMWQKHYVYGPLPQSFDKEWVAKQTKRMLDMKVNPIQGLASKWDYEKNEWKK
UniProt P14854, whole entry, looked up: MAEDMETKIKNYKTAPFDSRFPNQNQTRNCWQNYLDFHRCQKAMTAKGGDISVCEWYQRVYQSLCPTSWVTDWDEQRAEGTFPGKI
UniProt P61201: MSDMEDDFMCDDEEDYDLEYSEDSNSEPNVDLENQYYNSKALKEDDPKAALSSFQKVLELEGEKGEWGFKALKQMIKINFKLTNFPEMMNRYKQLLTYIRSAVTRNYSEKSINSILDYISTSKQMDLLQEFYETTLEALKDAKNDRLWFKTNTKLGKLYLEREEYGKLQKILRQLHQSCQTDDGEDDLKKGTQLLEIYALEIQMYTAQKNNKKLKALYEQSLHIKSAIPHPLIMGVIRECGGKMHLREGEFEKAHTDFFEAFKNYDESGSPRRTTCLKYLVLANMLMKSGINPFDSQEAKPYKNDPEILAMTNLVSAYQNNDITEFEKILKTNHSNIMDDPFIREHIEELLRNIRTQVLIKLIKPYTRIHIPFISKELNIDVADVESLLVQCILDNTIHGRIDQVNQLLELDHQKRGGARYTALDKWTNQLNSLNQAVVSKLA
UniProt Q9P000, whole entry, looked up: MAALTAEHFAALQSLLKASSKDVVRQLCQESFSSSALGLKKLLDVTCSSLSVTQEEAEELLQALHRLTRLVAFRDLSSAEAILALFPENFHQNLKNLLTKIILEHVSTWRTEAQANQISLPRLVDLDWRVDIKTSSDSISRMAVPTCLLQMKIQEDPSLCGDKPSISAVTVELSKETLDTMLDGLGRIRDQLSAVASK
UniProt Q9H3G5: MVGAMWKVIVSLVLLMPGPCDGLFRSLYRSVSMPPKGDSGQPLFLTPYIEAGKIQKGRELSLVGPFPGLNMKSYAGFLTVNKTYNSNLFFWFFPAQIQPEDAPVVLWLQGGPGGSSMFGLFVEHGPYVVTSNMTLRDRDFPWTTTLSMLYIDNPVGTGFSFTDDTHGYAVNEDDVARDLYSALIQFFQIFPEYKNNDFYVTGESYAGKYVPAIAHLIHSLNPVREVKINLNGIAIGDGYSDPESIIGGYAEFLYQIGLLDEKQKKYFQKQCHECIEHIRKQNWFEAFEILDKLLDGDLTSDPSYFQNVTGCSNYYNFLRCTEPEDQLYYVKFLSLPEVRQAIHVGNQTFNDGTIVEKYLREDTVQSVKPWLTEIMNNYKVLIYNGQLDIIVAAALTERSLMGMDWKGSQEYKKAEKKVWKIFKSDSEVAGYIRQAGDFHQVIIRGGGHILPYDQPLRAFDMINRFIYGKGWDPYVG
UniProt P68400, whole entry, looked up: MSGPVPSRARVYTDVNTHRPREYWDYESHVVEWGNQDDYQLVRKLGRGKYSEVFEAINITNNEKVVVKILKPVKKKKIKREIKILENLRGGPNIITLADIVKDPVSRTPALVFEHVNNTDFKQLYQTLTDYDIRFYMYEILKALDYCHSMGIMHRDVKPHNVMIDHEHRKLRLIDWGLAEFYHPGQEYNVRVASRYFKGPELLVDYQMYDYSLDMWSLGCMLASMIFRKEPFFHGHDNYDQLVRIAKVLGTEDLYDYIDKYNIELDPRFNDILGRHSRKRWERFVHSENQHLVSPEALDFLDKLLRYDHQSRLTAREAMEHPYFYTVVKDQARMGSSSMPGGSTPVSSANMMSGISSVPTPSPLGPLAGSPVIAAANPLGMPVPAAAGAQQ
UniProt P12109: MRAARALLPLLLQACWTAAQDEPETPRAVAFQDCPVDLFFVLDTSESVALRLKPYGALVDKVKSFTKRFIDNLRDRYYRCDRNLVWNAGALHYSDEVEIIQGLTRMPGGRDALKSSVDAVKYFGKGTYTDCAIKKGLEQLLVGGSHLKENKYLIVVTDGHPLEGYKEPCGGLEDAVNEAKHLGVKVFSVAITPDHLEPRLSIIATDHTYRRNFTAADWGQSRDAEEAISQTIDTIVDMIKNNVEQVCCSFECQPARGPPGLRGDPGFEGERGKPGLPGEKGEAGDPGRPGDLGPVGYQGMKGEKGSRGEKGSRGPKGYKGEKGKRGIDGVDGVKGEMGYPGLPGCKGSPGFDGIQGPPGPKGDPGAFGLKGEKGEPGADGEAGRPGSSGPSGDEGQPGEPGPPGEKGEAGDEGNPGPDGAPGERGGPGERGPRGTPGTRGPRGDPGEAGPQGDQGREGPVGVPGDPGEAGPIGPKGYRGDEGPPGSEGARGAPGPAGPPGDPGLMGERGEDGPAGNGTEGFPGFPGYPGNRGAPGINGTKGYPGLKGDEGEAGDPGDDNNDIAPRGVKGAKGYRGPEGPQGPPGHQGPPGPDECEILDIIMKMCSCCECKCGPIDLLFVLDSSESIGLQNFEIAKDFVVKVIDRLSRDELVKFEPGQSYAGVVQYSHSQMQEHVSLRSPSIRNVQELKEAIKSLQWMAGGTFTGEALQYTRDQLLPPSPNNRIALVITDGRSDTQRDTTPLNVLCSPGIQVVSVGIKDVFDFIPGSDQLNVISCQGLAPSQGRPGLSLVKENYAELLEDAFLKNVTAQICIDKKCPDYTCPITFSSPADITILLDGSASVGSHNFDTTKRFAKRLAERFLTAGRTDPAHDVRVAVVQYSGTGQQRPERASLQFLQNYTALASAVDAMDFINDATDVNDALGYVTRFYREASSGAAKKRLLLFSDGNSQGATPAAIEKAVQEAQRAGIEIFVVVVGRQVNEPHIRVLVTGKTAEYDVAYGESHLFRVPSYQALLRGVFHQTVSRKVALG
UniProt Q7L5N1: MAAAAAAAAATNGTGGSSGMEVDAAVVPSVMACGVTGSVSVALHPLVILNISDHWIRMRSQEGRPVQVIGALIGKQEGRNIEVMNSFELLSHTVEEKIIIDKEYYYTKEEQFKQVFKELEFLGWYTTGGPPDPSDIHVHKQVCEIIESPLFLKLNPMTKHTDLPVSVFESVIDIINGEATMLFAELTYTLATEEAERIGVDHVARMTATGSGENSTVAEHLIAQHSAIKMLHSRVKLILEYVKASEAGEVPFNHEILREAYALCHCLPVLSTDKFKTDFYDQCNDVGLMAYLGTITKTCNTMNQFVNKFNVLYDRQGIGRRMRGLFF
UniProt Q9UNS2: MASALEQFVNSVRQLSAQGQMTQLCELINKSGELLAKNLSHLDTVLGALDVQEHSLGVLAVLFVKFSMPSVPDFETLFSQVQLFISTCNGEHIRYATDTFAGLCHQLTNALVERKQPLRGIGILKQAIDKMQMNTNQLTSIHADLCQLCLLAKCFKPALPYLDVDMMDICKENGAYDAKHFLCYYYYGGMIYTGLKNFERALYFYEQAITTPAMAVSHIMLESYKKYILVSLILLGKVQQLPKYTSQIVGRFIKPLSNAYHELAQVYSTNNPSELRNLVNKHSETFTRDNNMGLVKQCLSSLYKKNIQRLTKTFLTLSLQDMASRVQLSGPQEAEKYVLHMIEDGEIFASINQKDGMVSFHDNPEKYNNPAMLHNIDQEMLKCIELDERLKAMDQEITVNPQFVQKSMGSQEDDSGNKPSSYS
UniProt Q9H0A8, whole entry, looked up: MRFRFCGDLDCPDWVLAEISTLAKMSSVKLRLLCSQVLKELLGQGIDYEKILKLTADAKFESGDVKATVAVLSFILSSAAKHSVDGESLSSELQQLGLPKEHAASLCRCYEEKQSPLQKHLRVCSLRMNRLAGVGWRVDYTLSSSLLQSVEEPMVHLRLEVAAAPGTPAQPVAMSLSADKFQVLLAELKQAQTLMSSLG

How the values were obtained:
Experiment in all cases: log2 fold change, soluble protein after heating vs DMSO (PISA); higher = thermal stabilisation; K562 cells, 10 uM, 30 min; active = over 0.2 and 3.5 SD of the protein, either way, in both replicates (recomputed)
[1] = compound: NC(=O)Nc1cc(-c2cccc(F)c2)sc1C(=O)N[C@H]1CCCNC1
Method in brief: (§1)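 Thermal stability values are relative to control samples and come from duplicates. They are expressed as log2 fold changes. For measurement, K562 cells (2×10^6 cells/mL) received 10 μM compound for 30 min, and aliquots were heated for 3 min over 48°C-58°C, pooled, and extracted at 4°C in PBS with 0.5% NP-40. Soluble protein, the supernatant after 21,000xg for 90 min, was quantified by TMTpro 16plex LC-MS/MS with equalised channel sums.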

[2] = compound: NC(=O)c1cnc(N[C@@H]2CCCC[C@@H]2N)nc1Nc1cccc(-n2nccn2)c1
Method in brief: as §1

[3] = compound: NC1(c2ccc(-c3nc4ccn5c(=O)[nH]nc5c4cc3-c3ccccc3)cc2)CCC1
Method in brief: as §1

[4] = compound: NCC(=O)Nc1ccc(-n2nc(C(F)(F)F)cc2-c2ccc3c(ccc4ccccc43)c2)cc1
Method in brief: as §1

entinostat = compound: Nc1ccccc1NC(=O)c1ccc(CNC(=O)OCc2cccnc2)cc1 [entinostat]
Method in brief: as §1

vorinostat = compound: O=C(CCCCCCC(=O)Nc1ccccc1)NO [vorinostat]
Method in brief: as §1

citarinostat = compound: O=C(CCCCCCNC(=O)c1cnc(N(c2ccccc2)c2ccccc2Cl)nc1)NO [citarinostat]
Method in brief: as §1

silmitasertib = compound: O=C(O)c1ccc2c(c1)nc(Nc1cccc(Cl)c1)c1ccncc12 [silmitasertib]
Method in brief: as §1

[5] = compound: O=C1NC(=O)C(c2cnc3ccccn23)=C1c1cn2c3c(cc(F)cc13)CN(C(=O)N1CCCCC1)CC2
Method in brief: as §1

[6] = compound: c1cc(OCCN2CCCCC2)cc(-c2n[nH]c3ccc(-c4nnc[nH]4)cc23)c1
Method in brief: as §1

Measured: log2 fold change

CSE1L (UniProt P55060)
inactive: [1] -0.037 | [2] -0.067 | [3] -0.162 | [4] -0.071 | entinostat 0.05 | vorinostat 0.015 | citarinostat 0.058 | silmitasertib 0.035 | [5] -0.059 | [6] -0.018

COPRS (UniProt Q9NQ92)
inactive: [1] -0.03 | [2] 0.019 | [3] -0.014 | [4] -0.034 | entinostat -0.037 | vorinostat -0.027 | citarinostat -0.033 | silmitasertib -0.003 | [5] -0.101 | [6] 0.096

COPS5 (UniProt Q92905)
inactive: [1] 0.011 | [2] 0.012 | [3] -0.036 | [4] 0.001 | entinostat -0.014 | vorinostat 0.03 | citarinostat 0.043 | silmitasertib 0.004 | [5] 0.012 | [6] -0.023

CSNK1A1L (UniProt Q8N752)
inactive: [1] -0.224 | [2] 0.023 | [3] 0.064 | [4] -0.001 | entinostat 0.022 | vorinostat 0.128 | citarinostat 0.034 | silmitasertib 0.061 | [5] 0.14 | [6] -0.058

CORO1A (UniProt P31146)
inactive: [1] -0.054 | [2] -0.078 | [3] -0.212 | [4] -0.067 | entinostat -0.003 | vorinostat 0.074 | citarinostat 0.032 | silmitasertib 0.042 | [5] 0.011 | [6] -0.044

COMMD7 (UniProt Q86VX2)
inactive: [1] -0.04 | [2] -0.021 | [3] -0.088 | [4] -0.056 | entinostat -0.034 | vorinostat 0.043 | citarinostat 0.018 | silmitasertib 0.048 | [5] 0.023 | [6] -0.1

COQ3 (UniProt Q9NZJ6)
inactive: [1] -0.044 | [2] -0.071 | [3] -0.063 | [4] -0.046 | entinostat -0.06 | vorinostat 0.064 | citarinostat 0.06 | silmitasertib 0.031 | [5] -0.031 | [6] -0.024

COPB2 (UniProt P35606)
inactive: [1] -0.035 | [2] -0.034 | [3] -0.066 | [4] -0.038 | entinostat -0.019 | vorinostat 0.008 | citarinostat 0.017 | silmitasertib 0.014 | [5] -0.054 | [6] -0.024

COPS4 (UniProt Q9BT78)
inactive: [1] 0.015 | [2] 0.009 | [3] -0.032 | [4] 0.036 | entinostat 0.01 | vorinostat 0.027 | citarinostat 0.031 | silmitasertib -0.035 | [5] -0.01 | [6] 0.027

CRBN (UniProt Q96SW2)
inactive: [1] -0.021 | [2] 0.01 | [3] -0.048 | [4] 0.023 | entinostat -0.002 | vorinostat -0.043 | citarinostat 0.02 | silmitasertib 0.004 | [5] -0.076 | [6] -0.006

COX18 (UniProt Q8N8Q8)
inactive: [1] -0.051 | [2] -0.059 | [3] -0.034 | [4] -0.019 | entinostat -0.027 | vorinostat -0.043 | citarinostat 0.046 | silmitasertib -0.009 | [5] -0.069 | [6] -0.047

COX4I1 (UniProt P13073)
inactive: [1] 0.005 | [2] 0.012 | [3] 0.026 | [4] 0.026 | entinostat 0 | vorinostat -0.037 | citarinostat 0.005 | silmitasertib 0.003 | [5] -0.014 | [6] -0.046

COX6B1 (UniProt P14854)
inactive: [1] -0.039 | [2] -0.019 | [3] -0.146 | [4] 0.007 | entinostat 0.085 | vorinostat -0.06 | citarinostat -0.007 | silmitasertib -0.009 | [5] -0.126 | [6] -0.017

COPS2 (UniProt P61201)
inactive: [1] 0.044 | [2] 0.023 | [3] -0.052 | [4] -0.001 | entinostat -0.011 | vorinostat 0.009 | citarinostat 0.069 | silmitasertib -0.035 | [5] -0.011 | [6] -0.02

COMMD9 (UniProt Q9P000)
inactive: [1] 0.014 | [2] 0.001 | [3] -0.102 | [4] 0.064 | entinostat 0.073 | vorinostat -0.07 | citarinostat 0.023 | silmitasertib -0.009 | [5] -0.109 | [6] -0.082

CPVL (UniProt Q9H3G5)
inactive: [1] -0.122 | [2] 0.03 | [3] -0.139 | [4] -0.085 | entinostat -0.06 | vorinostat -0.039 | citarinostat -0.055 | silmitasertib -0.004 | [5] -0.148 | [6] 0.041

CSNK2A1 (UniProt P68400)
inactive: [1] -0.062 | [2] 0.014 | [3] 0.007 | [4] 0.05 | entinostat -0.015 | vorinostat 0.046 | citarinostat -0.013 | [5] -0.027 | [6] -0.045

CPT2 (UniProt P23786)
inactive: [1] -0.045 | [2] -0.264 | [3] 0.193 | [4] -0.052 | entinostat 0.174 | vorinostat -0.097 | citarinostat -0.109 | silmitasertib -0.08 | [5] 0.014 | [6] 0.157

COL6A1 (UniProt P12109)
inactive: [1] -0.136 | [2] -0.065 | [3] 0.159 | [4] -0.028 | entinostat -0.119 | vorinostat 0.028 | citarinostat -0.069 | silmitasertib 0.152 | [6] 0.299

COPS6 (UniProt Q7L5N1)
inactive: [1] 0.026 | [2] 0.005 | [3] -0.047 | [4] 0.058 | entinostat 0.019 | vorinostat -0.014 | citarinostat 0.026 | silmitasertib -0.004 | [5] -0.044 | [6] -0.025

CPSF1 (UniProt Q10570)
inactive: [1] 0.024 | [2] 0.069 | [3] 0.059 | [4] 0.006 | entinostat -0.023 | vorinostat 0.012 | citarinostat -0.025 | silmitasertib 0.052 | [5] 0.099 | [6] -0.139

CROCC (UniProt Q5TZA2)
inactive: [1] -0.066 | [2] -0.009 | [3] -0.083 | [4] -0.061 | entinostat 0.033 | vorinostat -0.027 | citarinostat -0.004 | silmitasertib -0.02 | [5] -0.116 | [6] 0.047

CORO1B (UniProt Q9BR76)
inactive: [1] -0.052 | [2] 0.006 | [3] -0.063 | [4] -0.037 | entinostat 0.016 | vorinostat 0.029 | citarinostat 0.044 | silmitasertib -0.002 | [5] -0.049 | [6] 0.017

COPG2 (UniProt Q9UBF2)
inactive: [1] 0.091 | [2] -0.004 | [3] -0.065 | [4] -0.047 | entinostat 0.054 | vorinostat 0.03 | citarinostat 0.049 | silmitasertib -0.001 | [5] -0.105 | [6] -0.001

Two entries picked at random from the list so far:
CORO1B (UniProt Q9BR76)
inactive: [1] -0.052 | [2] 0.006 | [3] -0.063 | [4] -0.037 | entinostat 0.016 | vorinostat 0.029 | citarinostat 0.044 | silmitasertib -0.002 | [5] -0.049 | [6] 0.017

COPG2 (UniProt Q9UBF2)
inactive: [1] 0.091 | [2] -0.004 | [3] -0.065 | [4] -0.047 | entinostat 0.054 | vorinostat 0.03 | citarinostat 0.049 | silmitasertib -0.001 | [5] -0.105 | [6] -0.001

Carrying on.

COPS3 (UniProt Q9UNS2)
inactive: [1] 0 | [2] -0.034 | [3] -0.002 | [4] 0.011 | entinostat 0.002 | vorinostat -0.003 | citarinostat 0.014 | silmitasertib -0.02 | [5] -0.021 | [6] -0.019

COPE (UniProt O14579)
inactive: [1] -0.098 | [2] -0.029 | [3] -0.077 | [4] -0.061 | entinostat 0.032 | vorinostat -0.028 | citarinostat 0.032 | silmitasertib 0.064 | [5] -0.028 | [6] -0.178

COMMD4 (UniProt Q9H0A8)
inactive: [1] -0.017 | [2] 0.059 | [3] -0.172 | [4] 0.078 | entinostat -0.011 | vorinostat 0.096 | citarinostat 0.029 | silmitasertib 0.046 | [5] 0.138 | [6] 0.043
